The list shows a part of the results.
test system: T1, CTL2-GFP (C. trachomatis L2/434/Bu, GFP-expressing); set-up: species or system HeLa; Intracellular C. trachomatis growth in HeLa cells, bulk GFP fluorescence relative to DMSO; conditions: bulk GFP, single well; 28.5 h, 10 µM; inhibitor
T1 construct: L2/434/Bu, GFP-expressing

Structure (SMILES)	% of control remaining [%]
Cc1cc(O)cc(=O)n1Cc1cccnc1 [CBK291123]	101.06
Cc1cccc(-c2n[nH]c(=S)n2CC(=O)Nc2cccc(C#Cc3ccccn3)c2)c1 [CBK296633]	148.399
COCCN(C(=S)Nc1ccc(OC)cc1)C(C)c1cccnc1 (stereo not shown) [CBK294471]	164.066
COc1ccc(-c2cnn(-c3ccc(OC(F)(F)F)cc3)n2)cc1 [CBK112773]	108.107
COc1ccc(N2C(=O)CC(NNC(N)=O)C2=O)cc1 (stereo not shown) [CBK263080]	97.1665
NCCCNc1ccc(C(=O)Nc2ccc(Cl)cc2)cc1[N+](=O)[O-] [CBK267880]	64.9876
Cc1csc2ncnc(N3CCN(C(=O)C4CC4)CC3)c12 [CBK023593]	104.913
O=C(NCC1CCCCC1)c1ccccc1-n1cccc1 [CBK149603]	100
CCOC(=O)c1cnc2ccc(Cl)cc2c1NC [CBK307605]	132.636
CN(Cc1ccccc1)C(=O)CNS(=O)(=O)c1ccc([N+](=O)[O-])cc1 [CBK268586]	95.7296
CCCn1ccnc1CN1CCC2(CC1)CC(C(=O)O)N(C(C)=O)C2 (stereo not shown) [CBK306691]	129.972
O=C(Nc1cccc(-c2noc(-c3ccccn3)n2)c1)c1cccs1 [CBK270283]	149.869
CC(C)(C)c1cc(C(=O)Nc2ccccn2)n(Cc2ccc(Cl)cc2Cl)n1 [CBK107361]	93.8381
Cc1cc(OC(C)C(=O)Nc2nnc[nH]2)ccc1Cl (stereo not shown) [CBK269731]	105.767
CC(=O)CSc1nnc(-c2ccc(F)cc2)o1 [CBK068327]	103.687
COc1cc(-c2cncc(N(C)CCN(C)C)n2)cc(OC)c1OC [CBK065312]	167.781
CC(C)(C)NC(=O)COc1ccc(CNCc2ccccn2)cc1 [CBK268420C]	131.783
CN(Cc1cc(C(C)(C)C)c(O)c(C(C)(C)C)c1)Cc1cc(C(C)(C)C)c(O)c(C(C)(C)C)c1 [CBK261980]	117.707
Cc1ccc(-c2cc3cccnc3n2CCC(=O)NC2CC2)cn1 [CBK284964]	111.854
O=[N+]([O-])c1cccc(-c2cc(N3CCC(N4CCCCC4)CC3)ncn2)c1 [CBK037710]	127.117
O=C(c1cccs1)N1CCCN(c2nccc(C(F)(F)F)n2)CC1 [CBK019390]	78.5454
Fc1cccc(-c2nccnc2NCc2cccnc2)c1 [CBK037633]	100.821
CSCCCNC(=O)c1ccc(-c2ccc(OC(F)(F)F)cc2)nc1 [CBK156216]	88.9515
COc1cc(OC)c(NC(=O)N2CCC(n3c(=O)[nH]c4ccccc43)CC2)cc1Cl [CBK149851]	105.317
CCN(C)c1c(C)nc2c(OCC(=O)N(C)C)cccn12 [CBK147316]	112.442
Cc1nn(C)c2ncc(S(=O)(=O)NC(C)c3cccc(F)c3)cc12 (stereo not shown) [CBK305948]	140.322
CS(=O)(=O)N(CC(=O)Nc1ccc2ccccc2c1)c1ccc(Cl)cc1Cl [CBK267501]	128.962

Structure (SMILES)	% of control remaining [%]
CCCCCc1nnc(NC(=O)c2cccs2)s1 [CBK058382]	116.79
NC(=O)CN1CCCC2(CCN(C(=O)Cc3c[nH]c4ccccc34)C2)C1 (stereo not shown) [CBK132046]	100
O=C(CCc1cccnc1)Nc1cnc(-c2cccc(OC(F)(F)F)c2)c(-c2cccnc2)n1 [CBK036811]	78.7682
COc1ccc(C(=O)Nc2c(C)noc2C)c(OC)n1 [CBK200300]	106.968
COC(=O)c1c(NC(=O)c2ccccc2)csc1C [CBK026684]	125.341
CN1CCC(N(C2CC2)S(=O)(=O)c2ccc(NC(=O)C(C)(C)C)cc2)CC1 [CBK021115]	124.858
O=C(Cn1cccc2cc(C3CCNCC3)nc1-2)N1CCCC1 [CBK284680]	105.826
Cn1cccc1-c1cc(C(=O)N/N=C/c2cccc(O)c2)[nH]n1 [CBK263397]	124.798
CC(C)c1ccc(/C=C/C(=O)NCCc2c[nH]cn2)cc1 [CBK149629]	116.436
NC1OC(COC(=O)c2ccccc2)C(OC(=O)c2ccccc2)C1OC(=O)c1ccccc1 (stereo not shown) [CBK010282]	121.421
CC(C)c1nc(CC(=O)N2CCOC(c3ccc(F)cc3)C2)cs1 (stereo not shown) [CBK305334]	159.54
FC(F)(F)c1cc(-c2cc(N3CCN(c4ccccn4)CC3)ncn2)cc(C(F)(F)F)c1 [CBK091082]	147.754
COc1cc(C#N)ccc1OCc1cc(C)on1 [CBK002581]	108.74
CCCC(=O)NC1CCN(C(=O)c2snnc2CC)CC1 [CBK297744]	134.013
CS(=O)(=O)c1ccc(CN2C(=O)CC3(CCN(Cc4ccccc4)CC3)C2=O)cc1 [CBK144065T]	100.011
C#CCn1ncc2c3sc(C)cc3n(CC)c2c1=O [CBK284225]	147.981
COc1ccccc1N(CC(=O)Nc1ccc2c(c1)oc1ccccc12)S(=O)(=O)c1ccccc1 [CBK264737]	120.557
Cc1occc1C(=O)Nc1nc(CC(=O)N(C)Cc2ccsc2)cs1 [CBK305631]	136.448
O=C(NCCc1ccc(Cl)cc1)C1(Cc2cccc(-c3cccnc3)c2)CCOCC1 [CBK285606]	84.5297
COC(=O)CNC(=O)C1CC(=O)N(c2ccccc2Br)C1 (stereo not shown) [CBK296672]	147.617
O=C(c1ccc(F)cc1)N1CCC(Oc2nccnc2OCc2ccc(Cl)c(Cl)c2)CC1 [CBK160721]	127.802
COc1cc2c(cc1OC)CN(Cc1ccc(OCc3ccccc3)c(OC)c1)CC2 [CBK033974]	118.096
O=C(CN(C(=O)CNC(=O)c1cccs1)c1cccc(C(F)(F)F)c1)NC1CCCCC1 [CBK084697]	96.31
CCNC(=O)N[C@@H]1C=C[C@@H](c2c(C)nn(CCC#N)c2C)C1 [CBK289171]	111.766
CCOc1ccc(N(Cc2ccc(C(=O)O)cc2)S(C)(=O)=O)cc1 [CBK287231]	128.925
CCOc1cc(/C=C(/C#N)c2nc3ccccc3[nH]2)ccc1OCc1ccc(C(=O)O)o1 [CBK267923]	130.133
C[n+]1cn(/N=C/c2ccco2)cn1 [CBK028562I]	137.491

Three compounds already listed, ordered by SMILES length, low to high:
Structure (SMILES)	% of control remaining [%]
CCCC(=O)NC1CCN(C(=O)c2snnc2CC)CC1 [CBK297744]	134.013
COC(=O)CNC(=O)C1CC(=O)N(c2ccccc2Br)C1 (stereo not shown) [CBK296672]	147.617
Cn1cccc1-c1cc(C(=O)N/N=C/c2cccc(O)c2)[nH]n1 [CBK263397]	124.798

(cont.)

Structure (SMILES)	% of control remaining [%]
CCN(CC)CCCNc1c([N+](=O)[O-])c(=O)n(C)c2ccccc12 [CBK264893]	100.644
CC(C)c1nc(NCCc2nnc3n2CCCC3)nc(N(C)C)n1 [CBK306426]	68.8088
O=C(c1cccc(F)c1)N1CCCC(c2cc3cccnc3[nH]2)C1 (stereo not shown) [CBK284939]	88.3271
Clc1cccc(C2N(Cc3ccccc3)CCN2Cc2ccccc2)c1 [CBK261222]	102.941
C(=C\c1nccnc1OCCOc1ccccc1)/c1ccccc1 [CBK106885]	100
Cc1ccc(C(=O)N2CCC(C(=O)NC(c3ccccc3)c3ccc4ccccc4n3)CC2)cc1 (stereo not shown) [CBK059663]	103.412
COc1ccc(C(NC(=O)C2CCC(N)CC2)c2ccccc2C)cn1 (stereo not shown) [CBK078551]	114.725
FC(F)(F)c1nc2ccccc2nc1SCCc1ccccn1 [CBK103731]	117.962
NNC(=O)/C(=C\c1cccc([N+](=O)[O-])c1)NC(=O)c1ccc(Br)o1 [CBK262573]	108.01
COc1ccc(C(NC(=O)C2CCN(S(C)(=O)=O)CC2)c2ccccc2C)cn1 (stereo not shown) [CBK059738]	142.803
C=C(C)CN1CCN(C(=O)c2[nH]c3ccc(OCC)cc3c2C)CC1 [CBK282666]	111.691
Cc1cccc(NCC(=O)N/N=C/c2cc3ccccc3nc2Cl)c1 [CBK261236]	100
Clc1ccc(Cl)c(N/N=C(\c2ccccc2)c2cccnc2)c1 [CBK015932C]	72.53
CC(=O)Nc1ccc(-c2nc3ccc(-c4ccc5nc(-c6ccc(NC(C)=O)cc6)oc(=O)c5c4)cc3c(=O)o2)cc1 [CBK261391]	105.416
CCOC(=O)CN1CCN(C(=O)Nc2ccccc2Br)CC1 [CBK044156]	132.072
CC(C)NC(=O)Cn1c(-c2cccs2)cc2cccnc21 [CBK282454]	144.717
Cc1cccc(-n2c(SCC(=O)Nc3ccc(Br)cc3F)nnc2-c2ccccc2)c1 [CBK265903]	126.25
Cc1cc(C)n2ncc(C(=O)N3CCCC3c3ccsc3)c2n1 (stereo not shown) [CBK305616]	112.939
FC(F)(F)c1ccnc(OC2CCNC2)n1 (stereo not shown) [CBK113296]	109.511
O=C(Nc1cccc2cccnc12)c1sc2ccccc2c1Cl [CBK262132]	106.177
O=C(NC1CC2(CCOCC2)Oc2ccccc21)c1cccs1 (stereo not shown) [CBK285377]	115.877
CC(C)(C)c1ccc(NC(=O)N(Cc2ccccc2C(F)(F)F)CC2CCNCC2)cc1 [CBK049752]	120.748
COc1ccc(NC(=O)CSc2ncnc3sc(C)cc23)c(OC)c1 [CBK277541]	138.693
Cc1n[nH]c(C)c1CC(=O)NC(Cc1cccs1)c1nccs1 (stereo not shown) [CBK285093]	112.891
Cc1nc(-c2cccnc2)[nH]c(=O)c1CCC(=O)N1CCNC(C)C1 (stereo not shown) [CBK304163]	112.694

Laid out differently: two of the compounds above.
Structure (SMILES) | % of control remaining [%]
Cc1cccc(-c2n[nH]c(=S)n2CC(=O)Nc2cccc(C#Cc3ccccn3)c2)c1 [CBK296633] | 148.399
Fc1cccc(-c2nccnc2NCc2cccnc2)c1 [CBK037633] | 100.821

— PMC12040169 (PLOS Biology, 2025)
